The text below walks through data of US6063541A, “Hydrazides” (Kodak Polychrome Graphics LLC, priority 1997, dated 2000).

Series [1] is described as follows: Line edge evaluated at 50x magnification. Also on record: key: 1: acceptable for use; ratings of "2" to "4" indicate fuzzier line edges; 3: ratings of "2" to "4" indicate fuzzier line edges; ratings of "2" to "4" indicate fuzzier line edges. Conditions: rating at 50x magnification. From the text: (§1) The emulsion used is a monodispersed cubic AgClBr (70 mole % chloride) type with an area equivalent diameter of 0.2 μm. It is internally rhodium doped with sodium hexachlororhodate at 0.109 ppm rhodium based on silver. The emulsion is coated at 3.6 g Ag/M^2 on a polyester base. Gelatin content is 2.85 g/m^2 with 0.61 g/m^2 latex (a polyacrylate with sulfate, hydroxyl and carboxyl groups). The emulsion is sulfur and gold ripened and sensitized with 3-ethyl-2[3-(3'-ethyl-2-(4,5-disubstituted benzothiazolinylidene)-1-propenyl]-4,5-disubstituted benzothiazolium iodide (44.29 mg/mole Ag) and 2-([5,5-dimethyl-3-((5-(3-substituted-thioxo-4-thiazolidinonyl))ethylidenyi)-2-cyclohexen-1-ylidene]methyl)-3-substituted benzothiazolium salt (17.59 mg/mole Ag). The pAg is adjusted with NaCl and the emulsion is stabilized with triazaindolizine and phenylmercaptoterazole. The emulsion layer is overcoated with a gelatin layer containing a silica matting agent, hydroquinone, Dimezon S, sodium metabisulfate, a slippage agent and coating aid. The hydrazide is added to the emulsion (or adjacent layer) as a DMF/water solution at a level of 3 mmol/mole of silver.
(§2) The coated film samples were exposed on an Aerodyne Microsecond Laser Sensitometer, with a laser wavelength of 633 nanometers and having a beamwidth of 50 microns. The exposure was a series of adjacent parallel lines with a center-to center stepover spacing of 62 microns. The laser light was modulated by a step wedge of 21 steps each of 0.075 density units increments.
(§3) The exposed film was processed in a Polychrome processor at 35° C. for 35 seconds in a developer of the following composition:
(§4) The above concentrate is diluted with two equal parts of water to obtain a working developer solution with a working pH of 10.4. After fixing, washing and drying the strips were read on a Macbeth TR927 densitometer through a 3 mm aperture with light filtered to visual.
(§5) In the examples that follow, a comparison is made between the preferred hydrazide of the present invention and structurally related hydrazides. An emulsion is prepared using the procedure described above with an emulsion using hydrazides having Formula 3, described in Table 1. The film is exposed and developed as described in Example 2. The films are evaluated for speed, screen range, line edge, and pepper.
4.) Line edge is evaluated at 50x magnification. A rating of "1" is
acceptable for use while ratings of "2" to "4" indicate fuzzier line
(§6) The speed reported is relative, based on the speed (100) of Compound 4 at a hydrazide level of 0.23 mmol/mol Ag. The line edge is evaluated at 50× magnification. A rating of "1" is acceptable for use while ratings of "2" to "4" indicate fuzzier line edges. Pepper is evaluated at 50× magnification. Strips were clear processed for 35 sec at 95° F. The average count in 5 fields is given. The field size is 2.5 mm. An average count of greater than 6 is rejectable.

Series [2] in a line: Pepper evaluated at 50x magnification. Conditions: average count in 5 fields, field size 2.5 mm^2, >6 rejectable.
Text: as §1, §2, §3, §4, §5
5.) Pepper is evaluated at 50x magnification. The average count in 5
fields is given. The field size is 2.5 mm^2. An average count of
greater than 6 is rejectable.
as §6

As for `CCCCC(CCCC)c1cc[n+](CC(=O)Nc2ccc(S(=O)(=O)Nc3ccc(NNC(=O)C(=O)NCC)c(C)c3)cc2)cc1` [Compound 3], the “LINE EDGE” value in series [1] (0.16 mmol/mol Ag) is on record as 4; in series [1] (0.20 mmol/mol Ag) it was 3; in series [1] (0.23 mmol/mol Ag), 3; in series [1] (0.29 mmol/mol Ag) it was 3; in series [1] (0.51 mmol/mol Ag), 1. Moreover, the PEPPER in series [2] (0.16 mmol/mol Ag) stood at 0; in series [2] (0.20 mmol/mol Ag), 0; in series [2] (0.23 mmol/mol Ag), 0; in series [2] (0.29 mmol/mol Ag), 3; in series [2] (0.51 mmol/mol Ag), 3.

Regarding `CCCCC(CCCC)c1cc[n+](CC(=O)Nc2ccc(S(=O)(=O)Nc3ccc(NNC(=O)C(=O)NCC)cc3)cc2)cc1` [Compound 4], the “LINE EDGE” value in series [1] (0.16 mmol/mol Ag) is 4; in series [1] (0.20 mmol/mol Ag), 4; in series [1] (0.23 mmol/mol Ag), 2; in series [1] (0.29 mmol/mol Ag) it was 1; in series [1] (0.51 mmol/mol Ag), 1. Also, the PEPPER in series [2] (0.16 mmol/mol Ag) is on record as 0; in series [2] (0.20 mmol/mol Ag), 0; in series [2] (0.23 mmol/mol Ag), 0; in series [2] (0.29 mmol/mol Ag), 0; in series [2] (0.51 mmol/mol Ag), 2.

With `CCCCC(CCCC)c1cc[n+](CC(=O)Nc2ccc(S(=O)(=O)Nc3ccc(NNC(=O)C(=O)NCCO)c(C)c3)cc2)cc1` [IV], the “LINE EDGE” value in series [1] (0.16 mmol/mol Ag) is 2; in series [1] (0.20 mmol/mol Ag), 1; in series [1] (0.23 mmol/mol Ag), 1; in series [1] (0.29 mmol/mol Ag) it was 1; in series [1] (0.51 mmol/mol Ag), 1. Besides, the PEPPER in series [2] (0.16 mmol/mol Ag) is 1; in series [2] (0.20 mmol/mol Ag) it was 2; in series [2] (0.23 mmol/mol Ag) it was 1; in series [2] (0.29 mmol/mol Ag), 2; in series [2] (0.51 mmol/mol Ag), 30.

For the compound `CCCCC(CCCC)c1cc[n+](CC(=O)Nc2ccc(S(=O)(=O)Nc3ccc(NNC(=O)C(=O)NCCO)cc3)cc2)cc1` [XI], the “LINE EDGE” value in series [1] (0.16 mmol/mol Ag), in series [1] (0.20 mmol/mol Ag), in series [1] (0.23 mmol/mol Ag), in series [1] (0.29 mmol/mol Ag) and in series [1] (0.51 mmol/mol Ag) was 1 each time. For the same compound, the PEPPER in series [2] (0.16 mmol/mol Ag) stood at 3; in series [2] (0.20 mmol/mol Ag), 0; in series [2] (0.23 mmol/mol Ag), 1; in series [2] (0.29 mmol/mol Ag), 1; in series [2] (0.51 mmol/mol Ag), 80.
